US20200010857A1 (priority 2016, published 2020)

System: Rhodococcus aetherivorans BCP1
Experiment: TeO3^2− consumption assay, growing BCP1 cells
Type: cell-based

## O=[Te]([O-])[O-].[K+].[K+] [K2TeO3, potassium tellurite]
100 μg/mL K2TeO3
  reduction of TeO3^2− faster in conditioned than unconditioned cells: 12 h
Conditioned cells, 500 μg/mL K2TeO3
  amount of residual oxyanions present in the medium: 152 µg
Conditioned cells, 500 μg/mL K2TeO3, 5 culturing days
  reduction of the initial concentration of TeO3^2−: 348 µg
Conditioned cells, 500 μg/mL K2TeO3, initial 36 h
  reduction of TeO3^2− oxyanions during lag phase: 56 µg
Unconditioned BCP1 cells, 100 μg/mL K2TeO3
  time to complete reduction of TeO3^2−: 48 h
Unconditioned cells, 500 μg/mL K2TeO3, 24 h
  decrease of initial amount of oxyanions during lag phase: 153 µg
Unconditioned cells, 500 μg/mL K2TeO3, 120 h
  reduction of the initial amount of TeO3^2−: about 45%
Unconditioned cells, 500 μg/mL K2TeO3, 120 h (5 culturing days)
  reduction of the initial amount of TeO3^2−: 218 µg
